No constants are given. Whether binding was seen depends on the method and setting. In cells and extracts the contact can be indirect. Here binding means that the protein was enriched with, or labelled near, the bait; the list need not be complete. Tags and fused reporters may be left off the sequences shown.

The experiment deals with T1, Flotillin-1 (FLOT1), HA-tagged (UniProt O75955).
T1 sequence: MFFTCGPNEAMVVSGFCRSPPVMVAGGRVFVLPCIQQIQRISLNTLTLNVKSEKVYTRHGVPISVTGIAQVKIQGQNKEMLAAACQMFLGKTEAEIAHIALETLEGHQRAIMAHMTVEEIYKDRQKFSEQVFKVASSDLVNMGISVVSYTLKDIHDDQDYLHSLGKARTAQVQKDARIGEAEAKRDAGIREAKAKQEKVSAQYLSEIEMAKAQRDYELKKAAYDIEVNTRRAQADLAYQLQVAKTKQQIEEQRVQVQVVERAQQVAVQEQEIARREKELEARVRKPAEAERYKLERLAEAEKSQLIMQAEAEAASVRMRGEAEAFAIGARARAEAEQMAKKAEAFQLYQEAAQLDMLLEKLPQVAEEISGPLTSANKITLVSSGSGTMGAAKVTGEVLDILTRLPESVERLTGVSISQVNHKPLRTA
As to the kind of experiment: affinity purification with mass spectrometry; AGS cells transfected with HA-FLOT1, collected after 72 h; immunoprecipitation with anti-HA antibody; complex sent to proteomic analysis.

B1: Breast Cancer Antiestrogen Resistance 1 (BCAR1), in AGS cells (protein, UniProt P56945 1-870)
chain: MNHLNVLAKALYDNVAESPDELSFRKGDIMTVLEQDTQGLDGWWLCSLHGRQGIVPGNRLKILVGMYDKKPAGPGPGPPATPAQPQPGLHAPAPPASQYTPMLPNTYQPQPDSVYLVPTPSKAQQGLYQVPGPSPQFQSPPAKQTSTFSKQTPHHPFPSPATDLYQVPPGPGGPAQDIYQVPPSAGMGHDIYQVPPSMDTRSWEGTKPPAKVVVPTRVGQGYVYEAAQPEQDEYDIPRHLLAPGPQDIYDVPPVRGLLPSQYGQEVYDTPPMAVKGPNGRDPLLEVYDVPPSVEKGLPPSNHHAVYDVPPSVSKDVPDGPLLREETYDVPPAFAKAKPFDPARTPLVLAAPPPDSPPAEDVYDVPPPAPDLYDVPPGLRRPGPGTLYDVPRERVLPPEVADGGVVDSGVYAVPPPAEREAPAEGKRLSASSTGSTRSSQSASSLEVAGPGREPLELEVAVEALARLQQGVSATVAHLLDLAGSAGATGSWRSPSEPQEPLVQDLQAAVAAVQSAVHELLEFARSAVGNAAHTSDRALHAKLSRQLQKMEDVHQTLVAHGQALDAGRGGSGATLEDLDRLVACSRAVPEDAKQLASFLHGNASLLFRRTKATAPGPEGGGTLHPNPTDKTSSIQSRPLPSPPKFTSQDSPDGQYENSEGGWMEDYDYVHLQGKEEFEKTQKELLEKGSITRQGKSQLELQQLKQFERLEQEVSRPIDHDLANWTPAQPLAPGRTGGLGPSDRQLLLFYLEQCEANLTTLTNAVDAFFTAVATNQPPKIFVAHSKFVILSAHKLVFIGDTLSRQAKAADVRSQVTHYSNLLCDLLRGIVATTKAAALQYPSPSAAQDMVERVKELGHSTQQFRRVLGQLAAA
B1: the binding result is reported as “binds”.
